We go through one compound from patent publication US11530199B2, “Analogs for the treatment of disease” (Insilico Medicine IP Limited, priority 2021, dated 2022).

The match of structure and compound is tentative.

A short description of the series: Metabolic stability in human liver microsomes.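 Further: NADPH-supplemented incubation in 100 mM potassium phosphate buffer, compound loss sampled at 0, 5, 10, 20, 30 and 60 min by LC-MS/MS, first-order kinetics.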 The format is in vitro ADME. The settings on record: LM Clint; human liver microsomes 0.5 mg protein/mL, test compound 1 μM, 37° C., up to 60 min. On the technique in general: Microsomes from liver hold many membrane-bound enzymes, among them those of drug oxidation.

In the case of `CC(C)n1cnc(-c2ccc(C(F)(F)F)cc2)c1-c1nc(C(=O)Nc2ccc(CCC(=O)O)cc2)c[nH]1`, the “Human Liver Microsome (μM/min/mg)” value is recorded as “+++ (1-10 μM/min/mg as +++)”.
